Results are given in words; binding and its absence hold for the method and conditions named.

Sequences of proteins named here, by UniProt entry; tags and fusion partners are left off. A change or cut given only in a name is not applied to a line headed by its entry. A line that says so, or that is headed by a name, gives the form on record, which may keep a tag or linker.
PHR2^230–426 I362A (Q6Z156, form named): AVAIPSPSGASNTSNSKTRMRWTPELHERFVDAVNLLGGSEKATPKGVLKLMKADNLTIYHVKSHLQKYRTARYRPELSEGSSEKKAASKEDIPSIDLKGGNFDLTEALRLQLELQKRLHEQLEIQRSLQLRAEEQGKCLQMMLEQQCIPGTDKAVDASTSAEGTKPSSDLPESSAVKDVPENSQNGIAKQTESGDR
PHR2^230–426 L344R/Q351R/Q355R (Q6Z156, form named): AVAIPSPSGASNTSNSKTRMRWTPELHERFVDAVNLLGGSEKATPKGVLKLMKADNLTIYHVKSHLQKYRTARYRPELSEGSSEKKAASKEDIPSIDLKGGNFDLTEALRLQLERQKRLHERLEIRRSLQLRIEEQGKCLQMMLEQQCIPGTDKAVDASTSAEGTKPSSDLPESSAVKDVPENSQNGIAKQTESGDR
PHR2^230–426 L348A (Q6Z156, form named): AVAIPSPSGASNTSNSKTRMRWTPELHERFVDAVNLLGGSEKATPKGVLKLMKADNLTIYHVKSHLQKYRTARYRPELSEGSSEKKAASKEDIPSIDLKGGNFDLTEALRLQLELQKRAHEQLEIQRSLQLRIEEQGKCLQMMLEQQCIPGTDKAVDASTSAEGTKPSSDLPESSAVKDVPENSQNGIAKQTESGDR
PHR2^230–426 L358A (Q6Z156, form named): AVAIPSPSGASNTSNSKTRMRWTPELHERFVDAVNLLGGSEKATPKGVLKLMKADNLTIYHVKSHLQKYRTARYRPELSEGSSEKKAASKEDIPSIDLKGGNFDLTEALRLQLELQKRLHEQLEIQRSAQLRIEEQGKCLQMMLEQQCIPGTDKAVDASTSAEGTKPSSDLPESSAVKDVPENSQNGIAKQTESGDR
PHR2^(230–426 L348A/L358A/I362A) (Q6Z156, form named): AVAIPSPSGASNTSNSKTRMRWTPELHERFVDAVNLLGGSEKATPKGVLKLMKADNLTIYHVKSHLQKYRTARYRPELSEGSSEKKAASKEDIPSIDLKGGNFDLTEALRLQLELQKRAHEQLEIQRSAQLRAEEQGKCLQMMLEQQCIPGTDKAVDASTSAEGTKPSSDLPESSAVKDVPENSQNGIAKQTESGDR

The target of assay [1] is PHR2^230–426 I362A (rice) (UniProt Q6Z156). The assay is described as follows: SEC; gel filtration, buffer C (20 mM Tris/HCl pH 8.0, 200 mM NaCl, 1 mM TCEP) without InsP6; samples incubated at 4 °C for 12 h (Fig. 1b, c); both purified. (In general: In gel filtration, larger molecules generally elute earlier.)
Assay [2] has the same target. The assay is described as follows: SEC-MALS; Superdex 200 Increase 10/300 GL, buffer C (20 mM Tris/HCl pH 8.0, 200 mM NaCl, 1 mM TCEP) without InsP6, 2–3 mg/ml, 4 °C; both purified.
For assay [3], the target named is PHR2^230–426 L344R/Q351R/Q355R (rice) (UniProt Q6Z156). The assay is described as follows: SEC; gel filtration, buffer C (20 mM Tris/HCl pH 8.0, 200 mM NaCl, 1 mM TCEP) without InsP6; samples incubated at 4 °C for 12 h (Fig. 1b, c); both purified.
The target is the same in assay [4]. The assay is described as follows: SEC-MALS; Superdex 200 Increase 10/300 GL, buffer C (20 mM Tris/HCl pH 8.0, 200 mM NaCl, 1 mM TCEP) without InsP6, 2–3 mg/ml, 4 °C; both purified.
Assay [5] has as its target PHR2^230–426 L348A (rice) (UniProt Q6Z156). The experiment in a line: SEC; gel filtration, buffer C (20 mM Tris/HCl pH 8.0, 200 mM NaCl, 1 mM TCEP) without InsP6; samples incubated at 4 °C for 12 h (Fig. 1b, c); both purified.
The target is the same in assay [6]. The experiment in a line: SEC-MALS; Superdex 200 Increase 10/300 GL, buffer C (20 mM Tris/HCl pH 8.0, 200 mM NaCl, 1 mM TCEP) without InsP6, 2–3 mg/ml, 4 °C; both purified.
Assay [7] has as its target PHR2^230–426 L358A (rice) (UniProt Q6Z156). The assay is described as follows: SEC; gel filtration, buffer C (20 mM Tris/HCl pH 8.0, 200 mM NaCl, 1 mM TCEP) without InsP6; samples incubated at 4 °C for 12 h (Fig. 1b, c); both purified.
For assay [8] the target is unchanged. The assay is described as follows: SEC-MALS; Superdex 200 Increase 10/300 GL, buffer C (20 mM Tris/HCl pH 8.0, 200 mM NaCl, 1 mM TCEP) without InsP6, 2–3 mg/ml, 4 °C; both purified.
The target in assay [9] is PHR2^(230–426 L348A/L358A/I362A) (rice) (UniProt Q6Z156). The description is as above.

With “PHR2^230–426 I362A (from UniProt Q6Z156 230-426) (domain or fragment)”, the binding entry in [1] and in [2] was “no binding” each time.
Turning to “PHR2^230–426 L344R/Q351R/Q355R (from UniProt Q6Z156 230-426) (domain or fragment)”, the binding entry in assay [3] and in assay [4] was “no binding” throughout.
On to “PHR2^230–426 L348A (from UniProt Q6Z156 230-426) (domain or fragment)”, for which the binding entry in [5] and in assay [6] was “no binding” in each case.
As to “PHR2^230–426 L358A (from UniProt Q6Z156 230-426) (domain or fragment)”, the binding entry in assay [7] and in assay [8] was “no binding” each time.
With “PHR2^(230–426 L348A/L358A/I362A) (from UniProt Q6Z156 230-426) (domain or fragment)”, in [9], the binding result was “no binding”.

(Values after article PMC8639918, “Mechanism of phosphate sensing and signaling revealed by rice SPX1-PHR2 complex structure” (Nature Communications, 2021).)
